Results are given in words; binding and its absence hold for the method and conditions named. In cells and extracts the contact can be indirect. Some entries that bind do so weakly or less than the wild type. Values belong to the substance of their own block, whether it stands above or below them.
How the values were obtained:
[1] = molecular target: GRIM-19 (human (endogenous in HeLa)) (UniProt Q9P0J0); test: co-IP; HeLa cell lysate; IP with anti-GRIM-19 or normal IgG, Protein G-agarose, 4°C, washed with RIPA buffer; Western blot with anti-E6AP
[2] = molecular target: Flag-tagged HPV18 E6 protein (pET-18E6-Flag) (human papillomavirus type 18 (HPV18)) (UniProt P06463); test: pull-down; same experiment as a5, for the pair E6AP-Δ2 and 18E6 (both added in solution to GST-GRIM-19 beads; 10 ug E6AP-Δ2)
[3] = molecular target: GST-G19-Δ1 (1–35 aa) (human) (UniProt Q9P0J0); test: pull-down; 10 µg GST fusion protein immobilised on glutathione-agarose; incubated overnight at 4°C with lysate of E. coli BL21 expressing Flag-tagged or His-tagged protein; washed with PBS with 1% Triton X-100; Western blot; only the target purified
[4] = molecular target: GRIM-19 (human (endogenous in HeLa)) (UniProt Q9P0J0); test: co-IP; lysate of HeLa cells transfected with p18E6-Flag; IP with the indicated antibodies, Protein G-agarose, 4°C, washed with RIPA buffer; Western blot

By UniProt entry, the sequences of proteins in these tests, tags left out. Where a name states a change or a piece, a line headed by the entry shows the natural chain unless it says otherwise. Residues count along the entry.
UniProt Q9P0J0: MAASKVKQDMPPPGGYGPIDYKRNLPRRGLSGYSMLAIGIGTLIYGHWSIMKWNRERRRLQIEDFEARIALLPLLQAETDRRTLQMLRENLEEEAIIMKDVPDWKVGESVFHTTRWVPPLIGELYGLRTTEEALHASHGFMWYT
GST-G19-Δ1 (1–35 aa): residues 1-35 of Q9P0J0
UniProt P06463: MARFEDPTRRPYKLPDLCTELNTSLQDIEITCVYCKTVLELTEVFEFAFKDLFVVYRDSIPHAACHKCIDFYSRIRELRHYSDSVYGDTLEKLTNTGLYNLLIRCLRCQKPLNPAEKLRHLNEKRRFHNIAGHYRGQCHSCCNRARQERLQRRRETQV
UniProt Q05086: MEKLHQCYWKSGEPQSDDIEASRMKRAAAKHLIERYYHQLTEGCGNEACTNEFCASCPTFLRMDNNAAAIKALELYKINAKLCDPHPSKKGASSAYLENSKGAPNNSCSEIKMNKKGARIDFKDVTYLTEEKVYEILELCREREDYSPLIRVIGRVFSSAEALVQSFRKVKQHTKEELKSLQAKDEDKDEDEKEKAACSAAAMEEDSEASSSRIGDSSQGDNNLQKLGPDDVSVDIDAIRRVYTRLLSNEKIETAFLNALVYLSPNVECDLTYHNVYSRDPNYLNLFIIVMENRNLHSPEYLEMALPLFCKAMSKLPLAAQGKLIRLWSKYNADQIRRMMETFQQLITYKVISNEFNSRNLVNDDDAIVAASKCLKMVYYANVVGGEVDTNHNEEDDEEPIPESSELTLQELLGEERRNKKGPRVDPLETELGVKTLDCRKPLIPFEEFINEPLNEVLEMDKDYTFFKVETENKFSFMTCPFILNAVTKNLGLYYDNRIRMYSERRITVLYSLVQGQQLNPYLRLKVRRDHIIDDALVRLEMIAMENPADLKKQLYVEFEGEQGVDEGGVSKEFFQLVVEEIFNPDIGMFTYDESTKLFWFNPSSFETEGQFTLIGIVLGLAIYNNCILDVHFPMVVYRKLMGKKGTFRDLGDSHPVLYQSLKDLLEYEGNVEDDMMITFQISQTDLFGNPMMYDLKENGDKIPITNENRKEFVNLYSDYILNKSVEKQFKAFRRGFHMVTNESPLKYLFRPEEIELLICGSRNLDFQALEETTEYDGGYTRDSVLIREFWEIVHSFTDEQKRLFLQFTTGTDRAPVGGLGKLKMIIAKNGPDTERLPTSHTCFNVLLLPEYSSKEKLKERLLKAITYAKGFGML
E6AP-Δ2 (287–521 aa): residues 290-524 of Q05086
E6AP-Δ3 (522–872 aa): residues 525-875 of Q05086

binding [1]: binds
Substance: E6-associated protein (E6AP) (from UniProt Q05086 1-875)

Substance: E6AP-Δ2 (287–521 aa) (from UniProt Q05086-3 287-521) (domain or fragment)
binding [2]: binds

binding [3]: binds
Substance: E6AP-Δ3 (522–872 aa) (from UniProt Q05086-3 522-872) (domain or fragment)

Substance: Flag-tagged 18E6 protein (p18E6-Flag) (from UniProt P06463 1-158)
binding [4]: binds

Substance: Flag-tagged HPV18 E6 protein (pET-18E6-Flag) (from UniProt P06463 1-158)
binding [3]: binds

Reference: article PMC3134474
